# Laboratory results as given in PubChem BioAssay AID504834 (National Center for Advancing Translational Sciences (NCATS), 2011).
# The campaign covered roughly 320,000 compounds. About 22,000 (6.9%) were called active. Inconclusive results, whose numbers are uncertain, are shown with a selection of clear calls. Calls come from the whole dose curve; as a rule, active = well fitted inhibition curve with a large enough effect; inconclusive = small, poorly fitted or top-dose-only effect, or another doubt; inactive = no such curve, though single readings can be large or run the other way. Potencies beside an inconclusive call are fits to weak or partial responses and may not hold up.
# Test: Primary qHTS for delayed death inhibitors of the malarial parasite plastid, 96 hour incubation
# Conditions: P. falciparum luciferase reporter growth; series mostly up to 28.7 µM
# Summary of the method: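 Plates of compound plus infected erythrocytes (2% hematocrit, 0.05% parasitemia final) incubate 96 hours, 37 C, 5% CO2. Detection reagent added; reduced luminescence from the parasites' luciferase reporter flags inhibition.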
# % is set by controls: 0 for no effect and ±100 for the full control effect; potency is the fitted concentration of half-maximal effect.
SMILES,Potency,"activity change, negative = inhibition"
O=C(COC(=O)Cc1ccc(Br)cc1)NCc1ccc(F)cc1,inactive,–
CC1(C)CCc2nc(SCc3ccccc3)c(C#N)cc2C1,active: 6.57 µM,–
CCN1CCN(CCNC(=O)c2cc(Cl)c(NC(=O)C3=C(C)OCCS3)cc2OC)CC1,inactive,–
OCCNCC1(O)C2CC3CC(C2)CC1C3 (stereo not given),"inconclusive: 9.28 µM [inhibitor, partial curve, poor fit]",–
O=C(NCCN=C1NS(=O)(=O)c2ccccc21)c1ccccc1,"inconclusive: 10.4 µM [inhibitor, partial curve]",–
CC(C)Cn1cnc2c(N)nc3ccccc3c21,"inconclusive: 4.26 µM [inhibitor, full curve, poor fit]",–
CCCNC(=O)c1ccc(Cn2cc(-c3ccc(OC)cc3)nc2C(C)N)cc1 (stereo not given),"inconclusive: 18.5 µM [inhibitor, single point]",–
Cc1ccc(/C=C/C(=O)NC(=S)Nc2ccccc2C(=O)NC2CCCCC2)cc1,"inconclusive: 13.1 µM [inhibitor, single point]",–
C#CCOCCOCCOCCNc1nc(N2CCN(C(=O)CCCCCCCCCCNC(=O)Cn3cc(CCCCCN)nn3)CC2)nc(N2CCN(C(=O)CCCCCCCCCCNC(=O)[C@H](CO)n3cc(CCCSC)nn3)CC2)n1,active: 1.47 µM,–
CC(=O)N(c1ccc(Cl)cc1)c1c[nH]c2ccccc12,active: 6.57 µM,–
Clc1ccccc1/C=C/c1nc(-c2cccnc2)no1,inactive,–
NCCCC[C@H]1CNC(=O)C(=O)N1CCC12CC3CC(CC(C3)C1)C2,active: 7.38 µM,–
c1ccc2c(SCc3cn4cccnc4n3)ncnc2c1,"inconclusive: 7.38 µM [inhibitor, partial curve]",–
O=[N+]([O-])c1cc(S(=O)(=O)Nc2ccccc2)ccc1NCc1ccccc1,"inconclusive: 18.5 µM [inhibitor, single point]",–
O=C1S/C(=C\c2ccccn2)C(=O)N1Cc1ccccc1F,"inconclusive: 18.5 µM [inhibitor, single point]",–
COc1cccc(C(=O)C2CCCN(C(=O)c3cccc(C#CC(C)(C)O)c3)C2)c1 (stereo not given),active: 11.7 µM,–
Cc1cc(C(=O)CN2C(=O)NC(C)(CC(C)C)C2=O)c(C)n1-c1ccc2c(c1)OCO2 (stereo not given),active: 4.15 µM,–
COC(=O)c1ccc(Sc2ccc(C)cc2)c(N)c1,inactive,–
CCOC(=O)C(Cc1ccccc1)NC(=O)Cn1nnc(-c2ccccc2)n1 (stereo not given),"inconclusive: 18.5 µM [inhibitor, single point]",–
O=C(c1ccccc1)N(Cc1cccs1)C1CCS(=O)(=O)C1 (stereo not given),active: 0.37 µM,–
Cc1ccccc1NC(=O)CSc1n[nH]c(-c2ccco2)n1,inactive,–
O=C(Nc1ccccc1C(=O)O)c1ccc(Cl)c(S(=O)(=O)N2CCOCC2)c1,"inconclusive: 20.8 µM [inhibitor, partial curve, poor fit]",–
O=C(CNc1ccc2ccccc2c1)N/N=C/C=C/c1cccc([N+](=O)[O-])c1,"inconclusive: 18.5 µM [inhibitor, single point]",–
C/C(=N\NC(=O)CCn1nnc2ccccc21)c1ccco1,inactive,–
COc1ccccc1CN(C)C(=O)c1ccccc1SCC(=O)N1CCCC1,"inconclusive: 16.5 µM [inhibitor, single point]",–

SMILES,Potency,"activity change, negative = inhibition"
O=S(=O)(NNc1ccc(F)cc1F)c1cccc(Cl)c1,inactive,–
Cc1ccc(/C=N/Nc2ccc(C(=O)O)cc2)o1,"inconclusive: 6.57 µM [inhibitor, partial curve]",–
O=C(OCC(=O)N1CCCc2ccccc21)c1cnc(Cl)c(Cl)c1,inactive,–
O=C(Nc1ccc(NC(=O)c2cccs2)cc1)c1cccnc1,inactive,–
Cc1c(C(=O)N2CCc3ccccc3C2)sc2nc(-c3ccccc3)cn12,"inconclusive: 18.5 µM [inhibitor, single point]",–
CCOc1cccc(-c2nnc3sc(-c4cccs4)nn23)c1,"inconclusive: 2.33 µM [inhibitor, partial curve, poor fit]",–
CCCc1cc(=O)oc2c(CN3CCN(C)CC3)c(O)ccc12,inactive,–
COC(=O)NCC(C)OC(=O)Nc1cccc(Cl)c1 (stereo not given),"inconclusive: 13.1 µM [inhibitor, partial curve]",–
[N-]=[N+]=CC(=O)c1ccnc(C(=O)C=[N+]=[N-])c1,"inconclusive: 1.04 µM [inhibitor, partial curve, poor fit]",–
CCOC(=O)c1c(C)[nH]c(C)c1C(=O)COC(=O)/C=C/c1cccc(F)c1,"inconclusive: 11.7 µM [inhibitor, single point]",–
CC(=O)Nc1ccc(S(=O)(=O)Nc2nccc(C)n2)cc1,"inconclusive: 18.5 µM [inhibitor, single point]",–
CN(C)C(=O)c1cc(C(=O)c2ccc(Cl)cc2Cl)c[nH]1,inactive,–
CN(C)c1ccc(/C=C2\C(=O)NC(=O)N(CCc3ccc(F)cc3)C2=O)cc1,"inconclusive: 18.5 µM [inhibitor, single point]",–
O=C(CCCCCN1C(=O)c2cccc3cccc(c23)C1=O)NCc1ccco1,"inconclusive: 2.33 µM [inhibitor, full curve, poor fit]",–
CCOC(=O)CSc1ncnc2c1sc1nc(N3CCOCC3)c3c(c12)CCCC3,inactive,–
CNC(=O)c1c(C)[nH]c(=S)c(C#N)c1-c1ccco1,inactive,–
CCCN1CCN(CC(=O)Nc2nnc(C)s2)CC1,"inconclusive: 5.22 µM [inhibitor, partial curve, poor fit]",–
COc1cccc(/C=N/Nc2ccccc2C(=O)O)c1O,inactive,–
CC(OC(=O)CSc1ccc([N+](=O)[O-])cc1)C(=O)NCc1ccccc1 (stereo not given),inactive,–
CC(=O)Nc1c(-c2ccc3ccccc3c2)nc2ccccn12,inactive,–
Cc1ccc(C2(C)NC(=O)N(CC(=O)NC(=O)NC(C)(C)C)C2=O)cc1 (stereo not given),inactive,–
Cc1cc2cc(CNC(=S)NC3CCCCC3)ccc2n1C,inactive,–
CCc1noc(C)c1C(=O)NNC(=O)COc1ccc(Br)cc1,inactive,–
CC(=O)Nc1cc(C(=O)NCc2ccco2)ccc1Sc1ccc(C)cc1,"inconclusive: 13.1 µM [inhibitor, single point]",–
CCCc1nnc(NC(=O)Cn2c(=O)oc3cc(Br)ccc32)s1,inactive,–

SMILES,Potency,"activity change, negative = inhibition"
N#CC1(Cc2ccc(Cl)cc2)c2ccccc2C=CN1C(=O)c1ccccc1 (stereo not given),"inconclusive: 13.1 µM [inhibitor, partial curve, poor fit]",–
CCCC(=O)Nc1cccc(NC(=S)NC(=O)C(C)Oc2ccc(Cl)cc2Cl)c1 (stereo not given),"inconclusive: 18.5 µM [inhibitor, single point]",–
COc1ccc(C(C)(C)C)cc1S(=O)(=O)n1ccnc1C,–,inactive: 46.7% [at 1.15 µM]
CCC1CCCCN1CCCNC(=O)C(C)n1nc(C)c2sc3ccccc3c2c1=O (stereo not given),"inconclusive: 11.7 µM [inhibitor, single point]",–
O=C(NCc1cccnc1)/C(=C/c1ccc(-c2ccc(Cl)cc2)o1)S(=O)(=O)c1ccccc1,active: 3.29 µM,–
COc1cccc(CNCc2ccccn2)c1OC,inactive,–
Cc1c(-c2cccc(NC(=O)c3cccs3)c2)nc2ncccn12,"inconclusive: 8.28 µM [inhibitor, partial curve, poor fit]",–
COC(=O)C1=C(N)Oc2cc(C)n(C)c(=O)c2C1c1ccc(Cl)c(Cl)c1 (stereo not given),"inconclusive: 0.657 µM [inhibitor, partial curve, poor fit]",–
Cc1ccc(OCCNC(=O)c2ccc3c(c2)OCO3)cc1,inactive,–
Cc1ccc(C)c(S(=O)(=O)N2CCN(C(=O)/C=C/c3ccco3)CC2)c1,inactive,–
COc1cccc(C(=O)N/N=C(\C)c2ccc(NC(=O)Cc3ccccc3)cc2)c1OC,"inconclusive: 1.04 µM [inhibitor, full curve]",–
CCCN(CC1CC1)C(=S)NC(=O)c1cc(Br)ccc1Cl,"inconclusive: 0.233 µM [inhibitor, full curve, poor fit]",–
O=C(Nc1ccccc1-c1ccccc1)C(=O)Nc1ccccc1-c1ccccc1,"inconclusive: 2.94 µM [inhibitor, single point]",–
O=C(NCCc1ccccc1)c1ccc(-c2ccccc2C(F)(F)F)o1,inactive,–
Cc1ccccc1CS(=O)(=O)Cc1ccc(C(=O)NC2CCCC2)o1,"inconclusive: 18.5 µM [inhibitor, partial curve, poor fit]",–
CC1CN(c2nc3ccccc3nc2SCC(=O)Nc2ccc(F)cc2)CC(C)O1 (stereo not given),inactive,–
O=C(c1cccs1)N(Cc1cc2ccccc2[nH]c1=O)CC1CCCO1 (stereo not given),"inconclusive: 13.1 µM [inhibitor, single point]",–
COc1cccc(OCc2cc(C(=O)N(Cc3ccccc3)CC3CC3)no2)c1,"inconclusive: 18.5 µM [inhibitor, single point]",–
O=C(CN1C(=O)/C(=C\c2cccc(Cl)c2)Oc2ccccc21)N1CCN(c2ccccn2)CC1,active: 9.28 µM,–
Cc1ccc(OC(=O)COc2ccccc2C)c(-n2nc3ccccc3n2)c1,inactive,–
Cc1ccc(S(=O)(=O)C2(C(=O)N3CCCCC3C)CC2)cc1 (stereo not given),inactive,–
Cc1ccc(-n2nnnc2SCC(=O)N2CCCCC2)cc1,"inconclusive: 5.22 µM [inhibitor, partial curve]",–
CCCn1cnc2cc(NCc3ccccc3O)ccc21,"inconclusive: 18.5 µM [inhibitor, partial curve, poor fit]",–
C/C(=N\Nc1nc(C)c(C)s1)c1ccc([N+](=O)[O-])cc1,"inconclusive: 5.22 µM [inhibitor, partial curve, poor fit]",–
O=Nc1onc(-c2ccc([N+](=O)[O-])cc2)c1NO,inactive,–

# Single records, from the list above.
# `Cc1ccc(S(=O)(=O)C2(C(=O)N3CCCCC3C)CC2)cc1` (stereo not given) is entered as Potency: inactive
# `COC(=O)c1ccc(Sc2ccc(C)cc2)c(N)c1` is entered as Potency: inactive
# `CCOC(=O)CSc1ncnc2c1sc1nc(N3CCOCC3)c3c(c12)CCCC3` is entered as Potency: inactive
# `O=C(Nc1ccc(NC(=O)c2cccs2)cc1)c1cccnc1` is entered as Potency: inactive
